Laboratory results as given in article doi:10.1101/2020.05.29.123034.
Results are given in words; binding and its absence hold for the method and conditions named. Binding seen in cells or lysates may run through a third protein. Here binding means that the protein was enriched with, or labelled near, the bait; the list need not be complete.

Biological target: T1, GST-MPP2-SH3GK (mouse) (UniProt Q9WV34)
T1 sequence: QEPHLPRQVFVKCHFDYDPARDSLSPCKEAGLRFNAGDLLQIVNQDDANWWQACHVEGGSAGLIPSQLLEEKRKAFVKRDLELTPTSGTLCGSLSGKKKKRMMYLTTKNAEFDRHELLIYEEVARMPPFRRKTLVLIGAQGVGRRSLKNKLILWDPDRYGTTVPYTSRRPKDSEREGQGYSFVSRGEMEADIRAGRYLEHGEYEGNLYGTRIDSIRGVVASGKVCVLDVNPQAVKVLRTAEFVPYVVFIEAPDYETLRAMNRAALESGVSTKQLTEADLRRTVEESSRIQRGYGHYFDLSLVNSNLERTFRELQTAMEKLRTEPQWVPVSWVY
Test: affinity purification with mass spectrometry

binding | Substance
binds | endogenous GABAA receptor subunit α4 (from UniProt P28471 36-552)
binds | endogenous GABAA receptor subunit β2 (from UniProt P63138 26-474)
binds | endogenous GABAA receptor subunit β3 (from UniProt P63079 26-473)
binds | endogenous GABAA α1 from rat brain crude synaptosomes (from UniProt P62813 28-455) (receptor)
